# Data from paper PMC9602048.
# Chains of the proteins cited; added tags and fusions are not shown. Lines headed by an entry give the natural chain unless they say otherwise; changes in a name come on top.
# UniProt Q9WV30: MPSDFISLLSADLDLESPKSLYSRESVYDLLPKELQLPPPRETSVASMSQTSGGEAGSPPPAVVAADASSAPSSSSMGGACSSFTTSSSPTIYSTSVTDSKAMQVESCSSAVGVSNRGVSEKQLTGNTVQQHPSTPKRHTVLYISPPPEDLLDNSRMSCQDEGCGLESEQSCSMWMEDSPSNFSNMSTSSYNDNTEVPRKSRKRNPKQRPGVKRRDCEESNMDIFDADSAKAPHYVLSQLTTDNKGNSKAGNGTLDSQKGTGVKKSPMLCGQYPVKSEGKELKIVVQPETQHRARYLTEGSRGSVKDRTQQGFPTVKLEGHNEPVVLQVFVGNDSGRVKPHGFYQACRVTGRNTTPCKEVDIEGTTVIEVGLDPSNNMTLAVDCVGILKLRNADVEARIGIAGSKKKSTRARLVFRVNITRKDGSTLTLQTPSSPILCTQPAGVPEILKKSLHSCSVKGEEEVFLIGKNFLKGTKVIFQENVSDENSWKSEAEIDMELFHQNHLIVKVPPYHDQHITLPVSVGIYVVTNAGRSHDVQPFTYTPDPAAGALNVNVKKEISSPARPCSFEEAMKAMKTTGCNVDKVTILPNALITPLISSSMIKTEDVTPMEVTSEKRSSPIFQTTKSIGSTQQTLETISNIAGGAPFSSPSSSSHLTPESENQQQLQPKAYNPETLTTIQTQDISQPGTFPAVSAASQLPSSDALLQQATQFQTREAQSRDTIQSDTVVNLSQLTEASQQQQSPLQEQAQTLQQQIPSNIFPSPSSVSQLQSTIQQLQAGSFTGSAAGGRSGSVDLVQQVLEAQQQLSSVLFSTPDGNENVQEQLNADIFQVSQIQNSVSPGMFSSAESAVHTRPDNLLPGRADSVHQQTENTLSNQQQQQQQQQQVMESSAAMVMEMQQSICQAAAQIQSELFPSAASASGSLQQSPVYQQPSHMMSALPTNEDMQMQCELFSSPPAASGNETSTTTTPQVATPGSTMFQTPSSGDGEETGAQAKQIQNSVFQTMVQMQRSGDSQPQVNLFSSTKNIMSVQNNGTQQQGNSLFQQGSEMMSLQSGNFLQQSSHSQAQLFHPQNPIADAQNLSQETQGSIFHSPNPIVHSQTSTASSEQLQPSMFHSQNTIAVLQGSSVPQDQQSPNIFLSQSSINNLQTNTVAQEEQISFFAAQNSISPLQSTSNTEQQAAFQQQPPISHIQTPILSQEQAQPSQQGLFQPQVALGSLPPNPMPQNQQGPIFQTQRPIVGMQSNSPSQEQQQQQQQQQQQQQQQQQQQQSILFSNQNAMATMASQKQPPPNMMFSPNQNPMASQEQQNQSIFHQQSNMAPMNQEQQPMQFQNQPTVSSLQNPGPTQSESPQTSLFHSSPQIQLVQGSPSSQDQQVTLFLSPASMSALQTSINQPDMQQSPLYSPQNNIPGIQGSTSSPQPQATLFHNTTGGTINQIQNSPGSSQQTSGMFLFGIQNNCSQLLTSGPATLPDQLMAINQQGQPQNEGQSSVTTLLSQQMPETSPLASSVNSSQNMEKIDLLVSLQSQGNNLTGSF
# Construct, isoform or probe ends are uncertain for at least one entry. Results from cells or extracts need not show a direct contact.
# Molecular target: NFAT5 (nuclear factor of activated T cells 5) (UniProt Q9WV30)
# Experiment: EMSA supershift
# Conditions: NFAT5 monoclonal antibody, low or high dose, IgG as control; Viagene non-radioactive EMSA kit, biotin probe, nuclear extract, 6% native polyacrylamide gel; pH and temperature not stated; protein in an extract
sequence,measurement,value
TTTATCCCAGGGAAACCTTCACAGTGCATTC (double strand) [WNT4 promoter -3015 G allele probe (NFAT5 probe)],binding result,binds
